Experimental data: PubChem BioAssay AID1347422 (Sanford-Burnham Center for Chemical Genomics, 2020)
Over roughly 1,000 compounds, “thermal shift dTm” has its median near 0.19; the highest 2% begin near 1.7. The list shows a part of the results. Calls of active or inactive are those of the source.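 How the source made its calls: active means mean rise in melting temperature of at least 1 degC over same-plate control wells; inactive means below that, where a call was filed.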

By UniProt entry, the sequences of proteins in these tests, tags left out. Where a name states a change or a piece, a line headed by the entry shows the natural chain unless it says otherwise.
UniProt O00391: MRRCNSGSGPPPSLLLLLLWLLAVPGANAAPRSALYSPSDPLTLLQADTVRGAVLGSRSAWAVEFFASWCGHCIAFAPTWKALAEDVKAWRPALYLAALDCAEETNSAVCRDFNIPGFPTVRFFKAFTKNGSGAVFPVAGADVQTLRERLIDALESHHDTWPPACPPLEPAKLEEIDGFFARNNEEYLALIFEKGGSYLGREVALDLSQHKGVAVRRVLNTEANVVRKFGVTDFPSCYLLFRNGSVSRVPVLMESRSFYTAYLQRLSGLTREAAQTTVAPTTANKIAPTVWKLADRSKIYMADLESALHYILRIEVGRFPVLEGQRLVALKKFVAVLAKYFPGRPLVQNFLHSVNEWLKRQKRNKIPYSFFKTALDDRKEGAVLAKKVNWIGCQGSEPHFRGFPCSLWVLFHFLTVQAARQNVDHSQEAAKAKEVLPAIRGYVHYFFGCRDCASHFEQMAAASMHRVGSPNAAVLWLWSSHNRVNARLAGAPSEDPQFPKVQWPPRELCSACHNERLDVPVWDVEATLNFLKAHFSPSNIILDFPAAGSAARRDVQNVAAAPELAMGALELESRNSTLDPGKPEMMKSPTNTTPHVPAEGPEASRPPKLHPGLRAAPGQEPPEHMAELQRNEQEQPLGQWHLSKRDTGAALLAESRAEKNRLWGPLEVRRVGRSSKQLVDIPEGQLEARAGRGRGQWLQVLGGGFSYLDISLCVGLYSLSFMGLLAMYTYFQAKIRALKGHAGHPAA

Each compound was assayed against Sulfhydryl oxidase 1 (Homo sapiens) (UniProt O00391) (assay: QSOX1 binders by thermal stabilization, confirmation, QSOX1 inhibitor project, biophysical, protein thermal shift, single concentration (AID 1347422;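 further: dTm is compound Tm minus mean Tm of DMSO-only wells on that plate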)). Conditions: recombinant hQSOX1 thermal shift, Sypro Orange, at 25 µM, stronger effect = higher value.

Row | Compound | thermal shift dTm
1 | CCOc1ccc(NC(=O)Nc2cc(F)ccc2C)cc1 | active: 2.14 °C
2 | CCOc1ccc(C(=O)Nc2cc(C)ccn2)cc1[N+](=O)[O-] | 0.43 °C
3 | CCCOCC1CC2(CC(C)(c3csc(Nc4ccccc4)n3)OC2=O)C(=O)O1 (stereo not given) | 0.1 °C
4 | COc1ccc(CCC(=O)Nc2ccc(N3CCOCC3)c(Cl)c2)cc1 | 0.85 °C
5 | COc1cccc(NC(=O)Nc2cccc3ccccc23)c1 | 0.01 °C
6 | COc1cccc(-c2noc(COc3ccccc3Cl)n2)c1 | 0.18 °C
7 | CSc1cccc(NC(=O)Nc2ccc(Cn3cncn3)cc2)c1 | active: 1.3 °C
8 | CC(C)c1ccc(-c2csc(Nc3ccc(O)c(C(=O)O)c3)n2)cc1 | 0.81 °C
9 | COC(=O)Cc1cc(=O)n(-c2ccc(OC(F)(F)F)cc2)[nH]1 | 0.99 °C
10 | COC(=O)C1=C(C)N(c2ccc(Cl)cc2)C(=O)/C1=C\c1ccco1 | 0.01 °C
11 | CCc1ccc(NC(=O)Nc2ccc(Br)cn2)cc1 | 0.09 °C
12 | Cc1ccc(-n2[nH]c(CSc3nnnn3-c3ccccc3)cc2=O)cc1 | 0.43 °C
13 | Cc1ccc(C(=O)Nc2nc3ccccc3s2)s1 | 0.93 °C
14 | O=C(Nc1cccc(Br)c1)C1C2C3CCC(C3)C12 (stereo not given) | 0.21 °C
15 | CCOc1cc(Br)cc(/C=C/c2ccc3cccc(O)c3n2)c1O | 0.16 °C
16 | O=C(Nc1ccc(-c2csc(-c3ccccc3)n2)cc1)C1CCCCC1 | 0.11 °C
17 | Cc1noc(NS(=O)(=O)c2ccc(NC(=O)Nc3ccc(Cl)cc3)cc2)c1C | 0.7 °C
18 | CCOc1ccc(/C=C/C(=O)Nc2cc(OC)ccc2OC)cc1 | 0.11 °C
19 | c1ccc(COc2ccc(CNc3ccc(CNc4ncn[nH]4)cc3)cc2)cc1 | 0.3 °C
20 | CCOc1ccc(-c2cn(S(=O)(=O)c3ccc(C4CCCCC4)cc3)nc2N)cc1 | 0.21 °C
21 | COc1ccc(-n2nnc(-c3nc4ccccc4s3)c2N)cc1 | 0.2 °C
22 | Cc1ccc(S(=O)(=O)c2nc(S(C)(=O)=O)sc2NCc2ccccc2)cc1 | inactive: -7.05 °C
23 | O=C(Nc1cccc(-c2noc(COc3ccccc3)n2)c1)c1cccs1 | 0.1 °C
24 | Cc1ccccc1-c1noc(CNC(=O)c2ccc(C(C)(C)C)cc2)n1 | 0.2 °C
25 | Cc1ccc(-n2c(CCC(=O)O)ccc2-c2ccc(Br)cc2)cc1C | 0.16 °C
26 | COC(=O)c1cccc(-n2c(CCC(=O)O)ccc2-c2ccc(Br)cc2)c1 | 0.63 °C
27 | Cc1cccc(-c2noc(C(=O)NCCc3ccc(F)cc3)n2)c1 | 0.39 °C
28 | COc1cccc(NC(=O)c2ccc(Cl)c(S(=O)(=O)Nc3cccc(C)c3)c2)c1 | 0.29 °C

Row | Compound | thermal shift dTm
29 | O=C(NCCC1=CCCCC1)Nc1cccc(F)c1 | 0.19 °C
30 | O=C(CCc1ccccc1)NC(c1ccc(Cl)cc1)c1ccc2cccnc2c1O (stereo not given) | 0.16 °C
31 | COc1cccc(NC(=O)c2ccc(-c3cnn(C)c3)o2)c1 | 0.09 °C
32 | O=C(O)CC(Cc1ccc(Cl)cc1)C(=O)Nc1ccc(I)cc1 (stereo not given) | 0.3 °C
33 | Cc1cc(C)cc(NC(=O)Nc2cnc3ccccc3c2)c1 | inactive: -18.3 °C
34 | CCCCNC(=O)C1CCC(C(=O)NCCCC)CC1 (stereo not given) | 0.04 °C
35 | CN1CCN(c2ccccc2NC(=O)c2ccc(-c3cccc(Cl)c3)o2)CC1 | 0.05 °C
36 | Cc1ccc(-c2n[nH]c(-c3ccncc3)n2)cc1 | 0 °C
37 | NC(=O)c1ccc(NC(=O)CCc2nc(-c3ccccc3Cl)no2)cc1 | 0.19 °C
38 | O=C(Nc1ccc2ccccc2c1)c1ccc(-n2cnnn2)cc1 | inactive: 0 °C
39 | CSc1ccc(C2C(C#N)=C(N)Oc3cc(N(C)C)ccc32)cc1 (stereo not given) | 0.11 °C
40 | COc1ccc(NC(=O)NCc2ccc3[nH]c4c(c3c2)CCCC4)cc1 | active: 1.64 °C
41 | O=C(Cc1ccc(Br)cc1)Nc1ccc2[nH]ncc2c1 | 0.14 °C
42 | CCC(=O)NC(c1ccc(Cl)cc1)c1c(O)ccc2ccccc12 (stereo not given) | 0.33 °C
43 | COc1ccc(OC)c(NC(=O)C(=S)NCCc2ccccc2)c1 | 0.16 °C
44 | CC(Oc1ccc(-c2ccccc2)cc1)C(=O)Nc1nnc(C2CCCO2)s1 (stereo not given) | 0.25 °C
45 | Cc1cccc(C(=O)Nc2ccc(NC(=O)C(C)C)cc2O)c1 | 0.33 °C
46 | FC(F)(F)c1cccc(Nc2nc(-c3ccncc3)cs2)c1 | 0.02 °C
47 | CC(=O)N(CCC(c1ccc(C)cc1)c1ccco1)Cc1ccco1 (stereo not given) | 0.44 °C
48 | O=S(=O)(c1ccc(COc2ccc(Br)cc2)cc1)N1CCOCC1 | 0.07 °C
49 | O=C(Nc1cccc(-c2noc(/C=C/c3ccccc3)n2)c1)c1cccs1 | 0.1 °C
50 | CCCc1ccc(OCCNC(=O)CCCc2c[nH]c3ccccc23)cc1 | 0.16 °C
51 | O=C(COc1ccccc1Cl)Nc1ccccc1NC(=O)c1ccco1 | 0.05 °C
52 | COc1ccc(-c2csc(NC(=O)c3ccc(Cl)s3)n2)cc1 | 0.05 °C
53 | O=C(CSc1ncn[nH]1)Nc1ccc(/C=C/c2ccccc2)cc1 | inactive: -11.4 °C
54 | CN(C(=O)Nc1ccccc1)c1ccc2c(c1)nc1n2CCOC1 | 0.18 °C
55 | O=C(NCc1ccc2c(c1)OCO2)c1ccc(COc2ccc(Br)cc2)cc1 | 0.59 °C

Given as a markdown table: part of the list above

| Row | Compound | thermal shift dTm |
| --- | --- | --- |
| 33 | Cc1cc(C)cc(NC(=O)Nc2cnc3ccccc3c2)c1 | inactive: -18.3 °C |
| 34 | CCCCNC(=O)C1CCC(C(=O)NCCCC)CC1 (stereo not given) | 0.04 °C |
| 35 | CN1CCN(c2ccccc2NC(=O)c2ccc(-c3cccc(Cl)c3)o2)CC1 | 0.05 °C |
| 36 | Cc1ccc(-c2n[nH]c(-c3ccncc3)n2)cc1 | 0 °C |
